The assay deals with T1, sCD32B-Ig (UniProt P31994 43-217).
T1 construct: extracellular domain; also called CD32B-Fc; CD32-Fc; not shown: Ig/Fc part not described
T1 sequence (looked up): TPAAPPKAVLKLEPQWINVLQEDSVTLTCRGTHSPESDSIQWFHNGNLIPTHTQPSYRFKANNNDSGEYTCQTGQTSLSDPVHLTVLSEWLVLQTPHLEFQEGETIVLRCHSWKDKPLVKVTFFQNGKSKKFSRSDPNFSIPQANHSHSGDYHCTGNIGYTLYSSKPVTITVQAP
Nature of the assay: sandwich ELISA, sCD32B-Ig coat, sCD16A probe. In general terms: An ELISA detects its analyte on a solid surface through an enzyme-linked reagent.

Results are given in words; binding and its absence hold for the method and conditions named. Some binding calls cover weakened binding; strength is not graded here.

B1: h2B6-h3G8 covalent bispecific diabody (CBD) (bispecific antibody)
chain 1: EIVLTQSPDFQSVTPKEKVTFTCRTSQSIGTNIHWYQQKPDQSPKLLIKEVSESISGVPSRFSGSGSGTDFTLTINSLEAEDAATYYCQQSNTWPFTFGGGTKVEIKGGGSGGGGQVTLRESGPALVKPTQTLTLTCTFSGFSLSTSGMGVGWIRQPPGKALEWLAHIWWDDDKRYNPALKSRLTISKDTSKNQVVLTMTNMDPVDTATYYCAQINPAWFAYWGQGTLVTVSSLGGC
chain 2: DIVMTQSPDSLAVSLGERATINCKASQSVDFDGDSFMNWYQQKPGQPPKLLIYTTSNLESGVPDRFSGSGSGTDFTLTISSLQAEDVAVYYCQQSNEDPYTFGQGTKLEIKGGGSGGGGQVQLVQSGAEVKKPGASVKVSCKASGYTFTNYWIHWVRQAPGQGLEWIGVIDPSDTYPNYNKKFKGRVTMTVVVSTSTAYMELRSLRSDDTAVYYCARNGDSDYYSGMDYWGQGTTVTVSSLGGC
notes: covalent heterodimer of constructs 1 and 2; also called h2B6-h3G8 CBD; h2B6-h3G8 diabody
As for B1, the binding entry was “binds”.

For the origin of these results see patent publication US20150175697A1 (MacroGenics, published 2015).
